# The list shows a part of the results. These are further read-outs of the screen, such as a control signal, another cell line or another target. No call is given for them. Most of these compounds were active or inconclusive in the main read-out, so they are no random draw. The note in brackets gives the kind of curve behind each potency; many fits are weak.
# Test: qHTS Assay for Lipid Storage Modulators in Drosophila S3 Cells;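 for cell number change: cells counted by Cell Tracker Red CMTPX staining in the red channel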
# Conditions: BODIPY lipid droplet fluorescence, 18-24 h; for cell number change: measured here: cell count max response, cells fed with added oleic acid
# Procedure, shortened: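 Laser-scanning cytometry quantifies lipid droplet accumulation (500–530 nm total intensity; droplet/cell object ratio) in oleic acid-fed (400 uM added) Drosophila S3 cells treated with a concentration series. 20 uM Triacsin C defined 100% inhibition.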
# [1] = measured here: cell number channel AC50, cells fed with added oleic acid
# [2] = measured here: lipid fluorescence (Fed channel) AC50, cells fed with added oleic acid
smiles,measurement,setting,value
O=C(Nc1nc2ccccc2s1)C1CCN(S(=O)(=O)c2cc([N+](=O)[O-])ccc2Cl)CC1,cell number change,,-33%
same,AC50,[1],"0.0082 µM [falling, full curve, poor fit]"
Cc1cc2c(c(=O)o1)C1O[C@](CCCCN3C(=O)c4ccccc4C3=O)(Cc3cc(C#N)ccc31)O2,cell number change,,6.98%
same,AC50,[2],"5.31 µM [rising, single point]"
Cc1ccc(NC(=O)NC2CC(=O)N(c3ccc4c(c3)OCCO4)C2)c(C)c1 (stereo unspecified),AC50,[1],"0.92 µM [rising, full curve, poor fit]"
COc1ccccc1-c1nnc(SCC(=O)NC2CC2)n1C,cell number change,,-24.4%
same,AC50,[1],"0.58 µM [falling, full curve, poor fit]"
same,AC50,[2],"0.164 µM [falling, full curve, poor fit]"
CCOC(=O)Cc1csc(NC(=O)CSc2nnc(Cc3csc(N)n3)n2C)n1,cell number change,,-16.3%
CCOC(=O)N1CCN(CC(O)COc2cc(C)ccc2C(C)C)CC1 (stereo unspecified),cell number change,,-8.96%
same,AC50,[2],"29.1 µM [rising, single point]"
COCCNc1nc(-c2cc(C)c(C)cc2C)cs1,cell number change,,4.39%
COC(=O)c1ccc(NC(=O)Nc2ccc(OC)c(OC)c2)cc1,cell number change,,24.1%
O=C(O)CC1S/C(=N/N=C2CCCCC2)N(c2ccccc2)C1=O (stereo unspecified),cell number change,,-42.1%
same,AC50,[1],"11.6 µM [falling, partial curve]"
CCOC(=O)c1ccc(NC(=O)c2nc[nH]c2C(=O)N[C@@H](CC(C)C)C(=O)OCc2ccccc2)cc1,cell number change,,-0.425%
same,AC50,[2],"3.66 µM [falling, single point]"
CCOc1cc(/C=C2/C(=O)N(c3ccccc3)N=C2C)ccc1OC(=O)c1ccco1,cell number change,,-16.3%
same,AC50,[2],"6.51 µM [rising, single point]"
COc1ccc(OC)c(C(C(=O)NC2CCCCC2)N(C(=O)c2ccccn2)c2cccnc2)c1 (stereo unspecified),cell number change,,-6.09%
COc1ccc(/C=N/NC(=O)c2cc(-c3ccccc3)nc3ccccc23)cc1O,AC50,[2],"29.1 µM [rising, single point]"
Nc1cccc(-c2nc3ccc(N)cc3s2)c1,cell number change,,-10.6%
same,AC50,[2],"0.82 µM [rising, full curve, poor fit]"
CCOc1ccc(CCNC(=O)c2ccc(CS(=O)Cc3ccc(Cl)cc3)o2)cc1 (stereo unspecified),AC50,[2],"3.66 µM [falling, single point]"
Cc1cc(C(=O)NNC(=S)NC(C)c2ccccc2)c2ccccc2n1 (stereo unspecified),cell number change,,-17%
same,AC50,[2],"29.1 µM [falling, single point]"
Cc1ccc(-n2c(-c3ccccc3)c[n+]3c2CCc2ccccc2-3)c(C)c1,cell number change,,-121%
same,AC50,[1],"18.4 µM [falling, partial curve]"
same,AC50,[2],"20.6 µM [falling, partial curve]"
CCn1c(SCc2ccc(C)cc2)nnc1-c1nn(-c2ccccc2)ccc1=O,cell number change,,33%
same,AC50,[1],"0.411 µM [rising, full curve]"
same,AC50,[2],"1.3 µM [rising, full curve]"
CCOC(=O)c1c(C)[nH]c(C)c1C(=O)COC(=O)[C@@H](NC(=O)c1ccccc1OCC)C(C)C,cell number change,,69.8%
same,AC50,[1],"0.13 µM [rising, full curve, poor fit]"
same,AC50,[2],"14.6 µM [rising, partial curve]"
CCN(CC)CCCn1c2c(c(SCC(=O)Nc3nccs3)nc1=O)CCC2,cell number change,,-7.78%
same,AC50,[2],"23.1 µM [falling, partial curve, poor fit]"
OCCC1CN(Cc2cccs2)CCN1Cc1ccccc1 (stereo unspecified),cell number change,,28.6%
same,AC50,[2],"0.366 µM [rising, full curve, poor fit]"
Clc1ccc(Cc2nn3c(Cn4nnc5ccccc54)nnc3s2)cc1,AC50,[1],"2.31 µM [rising, partial curve]"
same,AC50,[2],"1.3 µM [rising, partial curve]"
FC(F)(F)c1cc(-c2cccs2)nc(-n2cc(Br)cn2)n1,AC50,[2],"14.6 µM [rising, partial curve]"
COc1ccc(SC[C@H](Cc2ccccc2)N2CC[C@@H](C)CCC2=O)cc1,cell number change,,16.9%
same,AC50,[2],"5.17 µM [falling, single point]"
Clc1ccc(C=NC23CN4CN(CN(C4)C2)C3)cc1,cell number change,,-12.3%
CN1C(=O)CSC1=NCC12CC3CC(CC(C3)C1)C2,cell number change,,-7.2%
same,AC50,[1],"6.51 µM [falling, single point]"
same,AC50,[2],"29.1 µM [falling, single point]"
CN(Cc1ccccc1)C(=O)c1ccc(NC(=O)Cc2cccc(NC(=O)C3CCN(C(=O)C4CC4)CC3)c2)cc1,cell number change,,-23.8%
same,AC50,[1],"0.00517 µM [falling, full curve, poor fit]"
O=C(O)Cn1nnnc1-c1ccc(F)cc1,cell number change,,-14.1%
same,AC50,[2],"29.1 µM [falling, partial curve]"
O=C(O)CN1C(=O)/C(=C\c2ccccc2OCc2ccc(F)cc2)SC1=S,cell number change,,-21.1%
Cc1cc2nc(SCCOC(=O)Nc3cccc(Cl)c3)nc(C)c2cc1C,cell number change,,10.9%
same,AC50,[2],"1.46 µM [falling, single point]"
Cc1cc(C)n2nc(SCC(=O)NC3CCCCC3)nc2n1,cell number change,,34%
same,AC50,[1],"32.6 µM [rising, single point]"
Cc1nn(Cc2c(Cl)cccc2Cl)c(Cl)c1/C=N/NC(=O)c1cccnc1,cell number change,,16.7%
COc1ccc(-c2nc(NC3=NCCCCC3)sc2C)cc1,AC50,[1],"6.51 µM [rising, partial curve, poor fit]"
O=C1C(Cl)=C(N2CCCCCC2)C(=O)N1c1ccccc1,cell number change,,-11.4%
same,AC50,[2],"0.731 µM [rising, partial curve]"
Cc1cc(Cl)ccc1OCC(=O)NCCC(=O)O,cell number change,,-0.279%
same,AC50,[2],"32.6 µM [falling, single point]"
O=Cc1ccccc1Oc1nc(N2CCOCC2)nc(N2CCOCC2)n1,cell number change,,55.5%
same,AC50,[1],"4.11 µM [rising, full curve, poor fit]"
CN(Cc1cccs1)C(=O)COc1cccc(-n2cnnn2)c1,cell number change,,4.94%
same,AC50,[2],"6.51 µM [rising, single point]"
COC(=O)C1=C(C)N(c2ccc(S(N)(=O)=O)cc2)C(=O)C1,cell number change,,-0.253%
same,AC50,[2],"0.058 µM [falling, full curve, poor fit]"
Cn1ccc(C(=O)Nc2ccc3c(c2)OCCO3)n1,cell number change,,-9.27%
COc1ccc2[nH]c(C(=O)N3CCNCC3)cc2c1OC,cell number change,,-38.9%
same,AC50,[1],"8.2 µM [falling, full curve, poor fit]"
COc1cc(/C=C/C(=O)OCC(=O)NCCC2=CCCCC2)ccc1O,cell number change,,13.9%
CC(C(=O)NCc1ccccn1)c1ccc([N+](=O)[O-])cc1 (stereo unspecified),cell number change,,-33.6%
C=CCn1nnnc1-c1cc(Cl)cc(Cl)c1,cell number change,,83.8%
same,AC50,[1],"18.4 µM [rising, single point]"
Cc1cccc(CC2CC(=O)N(c3nc4ccccc4s3)C2=O)c1 (stereo unspecified),cell number change,,5.73%
C(=N\Nc1nc(N2CCOCC2)nc(N2CCOCC2)n1)/c1ccco1,cell number change,,-1.24%
same,AC50,[2],"32.6 µM [falling, single point]"
O=C(/C=C/c1ccccc1)Nc1cc(NC(=O)/C=C/c2ccccc2)cc(C(=O)O)c1,cell number change,,-2.96%
O=C(NC1CCCCC1)C12CC3CC(C1)CC(n1cncn1)(C3)C2,cell number change,,-5.94%
COc1ccccc1-n1nnnc1SCC(=O)NC1CCCCC1,cell number change,,11.5%
same,AC50,[2],"0.116 µM [falling, single point]"
COc1ccc(CNC(=O)CN2C(=O)c3ccc([N+](=O)[O-])cc3C2=O)cc1,cell number change,,50%
N/C(=N\c1nc(CSc2nc3ccccc3s2)cc(=O)[nH]1)Nc1ccc(F)cc1,cell number change,,9.55%
same,AC50,[2],"0.517 µM [rising, full curve, poor fit]"
FC(F)(F)c1nc2ccccc2nc1N/N=C/c1c(Cl)cccc1Cl,cell number change,,-62.3%
same,AC50,[1],"4.11 µM [falling, full curve, poor fit]"
Cc1nnc(SCc2nnc(-c3cccs3)o2)n1Cc1ccccc1,cell number change,,46.7%
same,AC50,[1],"29.1 µM [rising, single point]"
same,AC50,[2],"0.411 µM [rising, single point]"
COc1ccc(NCc2nnc(SCC(=O)NNC(=O)c3ccc(C)cc3)n2C)cc1,cell number change,,-34%
same,AC50,[1],"5.17 µM [falling, full curve]"
same,AC50,[2],"6.51 µM [falling, single point]"
CSc1nc2ccc(NC(=O)c3c(F)cccc3F)cc2s1,cell number change,,89.5%
CCNC(=O)NC(=O)CSc1ccc(S(=O)(=O)N2CCCCC2)cn1,cell number change,,40.9%
same,AC50,[1],"29.1 µM [rising, single point]"
same,AC50,[2],"0.651 µM [falling, single point]"
CC1CN(S(=O)(=O)c2ccccc2)CN1C(=O)N1CCOCC1 (stereo unspecified),cell number change,,12.2%
COc1ccccc1/C=C1\SC(=S)N(CCC(=O)NC2=NCCS2)C1=O,cell number change,,41.4%
same,AC50,[1],"0.206 µM [rising, partial curve, poor fit]"
same,AC50,[2],"1.64 µM [rising, partial curve]"
Cc1ccc(NC(=O)c2cc(S(=O)(=O)N3CCOCC3)cn2C)cc1Cl,cell number change,,-4.32%
same,AC50,[2],"29.1 µM [falling, single point]"
Cc1cc(O)ccc1C1(c2ccc(O)cc2C)OC(=O)c2ccccc21,cell number change,,-39.2%
same,AC50,[1],"29.1 µM [falling, single point]"
same,AC50,[2],"29.1 µM [falling, single point]"
O=C(NC1CCCC1)C(c1ccncc1)N(C(=O)c1ccco1)c1ccc(F)c(Cl)c1 (stereo unspecified),cell number change,,-2.08%
CN(CC(=O)Nc1ccccc1Cl)C(=O)COC(=O)C1CC1,cell number change,,11.4%
CSc1nc2c(cnn2-c2ccccc2)c(=O)n1N,cell number change,,44.7%
same,AC50,[1],"0.259 µM [rising, full curve]"
same,AC50,[2],"0.164 µM [rising, full curve]"
CCCc1nnc(NC(=O)C(=O)NCCN(C)C)s1,cell number change,,28%
same,AC50,[2],"16.4 µM [rising, single point]"
CCCC(=O)C1=C(O)C(C(=O)OC)C(C)(C)CC1=NC(C)(C)C (stereo unspecified),cell number change,,36.8%
same,AC50,[1],"29.1 µM [rising, single point]"

# 7 entries drawn at random from the list so far:
smiles,measurement,setting,value
COc1ccc(/C=N/NC(=O)c2cc(-c3ccccc3)nc3ccccc23)cc1O,AC50,[2],"29.1 µM [rising, single point]"
O=C1C(Cl)=C(N2CCCCCC2)C(=O)N1c1ccccc1,cell number change,,-11.4%
O=Cc1ccccc1Oc1nc(N2CCOCC2)nc(N2CCOCC2)n1,AC50,[1],"4.11 µM [rising, full curve, poor fit]"
CN(Cc1cccs1)C(=O)COc1cccc(-n2cnnn2)c1,cell number change,,4.94%
Cc1cc(C(=O)NNC(=S)NC(C)c2ccccc2)c2ccccc2n1 (stereo unspecified),cell number change,,-17%
CCCC(=O)C1=C(O)C(C(=O)OC)C(C)(C)CC1=NC(C)(C)C (stereo unspecified),AC50,[1],"29.1 µM [rising, single point]"
O=C(O)Cn1nnnc1-c1ccc(F)cc1,AC50,[2],"29.1 µM [falling, partial curve]"

# Copied from the listing for reference:
smiles,measurement,setting,value
CC(C(=O)NCc1ccccn1)c1ccc([N+](=O)[O-])cc1 (stereo unspecified),cell number change,,-33.6%
C=CCn1nnnc1-c1cc(Cl)cc(Cl)c1,cell number change,,83.8%

# — PubChem BioAssay AID2685 (National Center for Advancing Translational Sciences (NCATS), 2010)
